Assay results published in publication PMC6889161, “Inhibitory characteristics of flavonol-3-O-glycosides from Polygonum aviculare L. (common knotgrass) against porcine pancreatic lipase” (Scientific Reports, 2019).

System: T1, pancreatic lipase (PL)
T1 construct: purchased Sigma-Aldrich Co. (St. Louis, MO, USA); host or cells: porcine pancreas (tissue preparation)
Test: Circular dichroism of PL secondary structure
Set-up: species or system porcine
Conditions: for Change in α-helix content of PL versus control: control 18.7%; for Change in β-turn content of PL versus control: control 20.0%; for Change in antiparallel β-sheet content of PL versus control: control 33.0%

SMILES | Change in α-helix content of PL versus control (compound 200 μM) | Change in α-helix content of PL versus control (compound 400 μM) | Change in β-turn content of PL versus control (compound 200 μM) | Change in antiparallel β-sheet content of PL versus control (compound 200 μM) | Change in β-turn content of PL versus control (compound 400 μM) | Change in antiparallel β-sheet content of PL versus control (compound 400 μM)
O=c1c(O)c(-c2ccc(O)c(O)c2)oc2cc(O)cc(O)c12 [Quercetin] | −0.4% | −0.3% |  |  |  | 
O=c1c(O[C@@H]2O[C@@H](CO)[C@H](O)[C@H]2O)c(-c2ccc(O)c(O)c2)oc2cc(O)cc(O)c12 [Avicularin, quercetin-3-O-α-L-arabinofuranoside] | −0.1% | −0.1% | −0.1% | −0.1% | −0.1% | −0.2%
C[C@@H]1O[C@@H](Oc2c(-c3ccc(O)c(O)c3)oc3cc(O)cc(O)c3c2=O)[C@H](O)[C@H](O)[C@H]1O [Quercitrin, quercetin-3-O-α-L-rhamnopyranoside] | −0.2% | −0.2% | −0.1% |  | −0.1% | 
O=c1c(O)c(-c2ccc(O)cc2)oc2cc(O)cc(O)c12 [Kaempferol] |  | −0.2% | −0.1% | −0.5% |  | 
